Test results: PubChem BioAssay AID1487 (National Center for Advancing Translational Sciences (NCATS), 2009)
“And” between values parts separate entries of the source, which are not always exact repeats. Equal values may be shown once. Some of the results follow. Shown are side measurements of this screen, not its main read-out; they come without a call. Compounds called inactive in the main read-out are mostly missing here. The note in brackets gives the kind of curve behind each potency; many fits are weak.

Test: qHTS Assay for Modulators of Lamin A Splicing
Settings: HeLa LMNA splicing GFP/RFP minigene ratio, 48 h
How it was run: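 S3 HeLa cells stably expressing lamin A-EGFP splicing minigene plus DsRed2, 600 cells/well, 48 h compound exposure at 37C. Laser-scanning cytometry; analysed as GFP (500-530 nm)/RFP (575-640 nm) total intensity ratio; 0.5% DMSO vehicle.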

[1] = measured here: RFP viability control channel
[2] = measured here: GFP splicing reporter channel

Compound	AC50 [1]	AC50 [2]
CCC(=O)N1CCN(c2ccc(NC(=O)COc3ccccc3Cl)cc2)CC1	12.6 µM [rising, single point]	–
O=C(CN1CCSc2ccccc21)NCCCc1ccccc1	–	35.5 µM [rising, single point]
CN1CCN(C(=O)c2ccc(S(=O)(=O)c3ccc(Br)cc3)cc2)CC1	10 µM [rising, partial curve]	–
Cc1c(Cl)cccc1-n1c(SCC(=O)N2CCC(C(=O)O)CC2)nnc1-c1ccncc1	0.158 µM [falling, single point]	0.562 µM [falling, full curve, poor fit]
Cc1cc(Nc2cccc(Cl)c2)nc2ccc(NC(=O)Cc3c(F)cccc3Cl)cc12	–	0.0794 µM [falling, partial curve]
CCOC(=O)C(=O)NNc1ccccc1C	–	31.6 µM [rising, single point]
CC(=O)Nc1ccc2c(c1)c1ccccc1n2C(C)=O	3.55 µM [rising, partial curve, poor fit]	35.5 µM [rising, single point]
Cc1cccc(NS(=O)(=O)c2ccc(C)c(C(=O)OCC(=O)Nc3cc(C)on3)c2)c1	11.2 µM [rising, partial curve]	11.2 µM [rising, partial curve, poor fit]
CC(C(=O)Nc1cccc(Br)c1)c1ccc([N+](=O)[O-])cc1 (configuration not stated)	14.1 µM [rising, single point]	–
COc1ccc2[nH]cc(CCNc3nc(-c4ccccc4OC)nc4ccccc34)c2c1	–	35.5 µM [falling, single point]
Cc1csc(NC(=O)C2CCCN(S(=O)(=O)c3ccc(Br)s3)C2)n1 (configuration not stated)	12.6 µM [rising, partial curve]	11.2 µM [rising, partial curve, poor fit]
COC(=O)c1ccc2c(c1)N(CC(=O)Nc1ccc(C)c(C)c1)C(=O)c1ccccc1S2	–	0.316 µM [falling, full curve]
CCCC1=C(C(=O)OCC)C(c2ccc(F)cc2)n2ncnc2N1 (configuration not stated)	–	0.00355 µM [falling, full curve, poor fit]
Oc1ccccc1-c1cc(-c2ccc3c(c2)OCCO3)n[nH]1	35.5 µM [rising, single point]	35.5 µM [rising, single point]
O=[N+]([O-])c1ccc(/C=N/Nc2ncc(-c3ccccc3)cn2)cc1	35.5 µM [falling, partial curve, poor fit]	–
COc1ccc(CN(CCC(c2ccccc2)c2ccco2)C(=O)c2ccco2)cc1 (configuration not stated)	14.1 µM [rising, single point]	–
O=S(=O)(NCC(c1ccco1)N1CCN(c2ccc(F)cc2)CC1)c1cc(F)ccc1F (configuration not stated)	–	0.0708 µM [falling, full curve, poor fit]

Compound	AC50 [1]	AC50 [2]
COc1ccc(CCNC(=O)c2ccc3[nH]c(C)c(C)c3c2)cc1OC	35.5 µM [falling, single point]	25.1 µM [falling, single point]
CCCN1CCc2c(sc(NC(=S)NC(=O)c3ccccc3)c2C#N)C1	0.0112 µM [falling, full curve, poor fit]	–
CCCCS/C(=C(/C#N)C(N)=O)c1cc2c([nH]1)CCCC2	35.5 µM [rising, single point]	35.5 µM [rising, single point]
Nc1ccc(S(=O)(=O)NNC(=O)C(=O)NNc2ccccc2)cc1	10 µM [rising, partial curve, poor fit]	–
O=C(O)c1ccc(Nc2ncnc3scc(-c4ccccc4)c23)cc1	4.47 µM [falling, partial curve, poor fit] and 10 µM [falling, partial curve]	10 µM [falling, partial curve] and 12.6 µM [falling, partial curve]
CCc1ccc2nc(N(Cc3cccnc3)C(=O)Cc3ccccc3)sc2c1	0.0631 µM [falling, full curve, poor fit]	–
O=[N+]([O-])c1c(NCCCO)cc(Sc2nc3ccccc3s2)c2nonc12	11.2 µM [falling, partial curve]	11.2 µM [falling, partial curve]
Cn1c(CNc2cccc(C(F)(F)F)c2)n[nH]c1=S	11.2 µM [falling, partial curve, poor fit]	–
O=C(O)c1ccccc1SC1CC(=O)N(c2ccc3c(c2)OCO3)C1=O (configuration not stated)	1.78 µM [rising, partial curve, poor fit]	–
CN(C)C(=O)CSc1nnc(-c2ccncc2)n1Cc1ccco1	–	0.158 µM [falling, single point]
COc1ccc2[nH]cc(C(=O)CN3CCCCC3)c2c1	3.98 µM [rising, single point]	5.62 µM [rising, single point]
CCc1ccccc1N1C(=O)N(Cc2cc(=O)n3ccccc3n2)c2ccccc2S1(=O)=O	–	5.62 µM [falling, single point]
CCOC(=O)C(=Cc1ccc(Br)cc1)C(=O)OCC	3.55 µM [falling, full curve, poor fit]	5.62 µM [falling, full curve, poor fit]
Cc1oc2c(cc(NS(=O)(=O)c3cccs3)c3ccccc32)c1C(=O)OC(C)C	35.5 µM [rising, single point]	–
Cc1nn(C)c(C)c1CN(C)C(=O)c1nn2c(c1Br)NC(c1cccs1)CC2C(F)(F)F (configuration not stated)	15.8 µM [rising, single point]	12.6 µM [rising, single point]
Nc1nc(Nc2ccc(Cl)cc2Cl)nc(C(F)(F)F)n1	–	8.91 µM [falling, single point]
Cc1cc(Cl)ccc1NNC(=O)c1c(C)noc1C	5.62 µM [rising, partial curve, poor fit]	6.31 µM [rising, partial curve, poor fit]

Single entries from the results shown.
Value for COc1ccc(CCNC(=O)c2ccc3[nH]c(C)c(C)c3c2)cc1OC under AC50 [2]: 25.1 µM [falling, single point]
Value for Cc1cccc(NS(=O)(=O)c2ccc(C)c(C(=O)OCC(=O)Nc3cc(C)on3)c2)c1 under AC50 [1]: 11.2 µM [rising, partial curve]
